According to PubChem BioAssay AID651900 (Broad Institute, 2012):
The list shows a part of the results. Further columns of the screen follow, without active or inactive calls.

Experiment: cytotoxicity in NIH3T3 fibroblasts, dose response, cytotoxicity control, cell-based, plate reader, cherry-pick, two tests (AID 651900)
Conditions: test 2 concentration series, at 26 µM
With Cc1nc2nc(SCC(=O)N3CCOCC3)nn2c(C)c1Cc1c(F)cccc1Cl the activity was -13.1%.
Work on Cc1nn(CCC(=O)O)c2nc(-c3cccnc3)cc(C(F)(F)F)c12 yielded an activity of -0.527%.
In the case of CC1(C(=O)NCc2ccc(F)c(F)c2)Cc2c(-c3cccc(C(N)=O)c3)ccnc2O1 (configuration not stated), the activity is reported as -1.31%.
CC(=O)c1ccc(NC(=O)C2CC(=O)N(Cc3ccccc3)C2)cc1 (configuration not stated) showed an activity of -12.7%.
In the case of O=C(Nc1ncc2c(n1)CC(c1ccco1)CC2=O)c1ccccc1 (configuration not stated), the activity is reported as -7.21%.
With CCCOC(=O)c1cccc(NC(=O)c2cccnc2)c1 the activity was -3.16%.
Compound CC(C)(C)c1cc(C(=O)Nc2cccnc2)cc(C(=O)Nc2cccnc2)c1 has an activity of 7.7%.
CC(=O)c1ccc(C(=O)N2CCCC(Nc3ccc(C(C)C)cc3)C2)s1 (configuration not stated) gave an activity of 6.57%.
In the case of Cc1nc2c(C(=O)N3CCN(c4ccccn4)CC3)cnn2c(C)c1Cc1cccc(Cl)c1, the activity is reported as 5.14%.
Compound COC(=O)c1c(C(=O)OC)c(-c2cccc(F)c2)n2c1CS(=O)C2 (configuration not stated) has an activity of 8.17%.
In the case of COc1ccc(-c2cc(NC=O)c3ncc(-c4cccc(C(=O)N(C)C)c4)n3c2)cn1, the activity is reported as -3.68%.
In the case of CC(Oc1ccc2c(-c3ccccc3)cc(=O)oc2c1)C(=O)NCc1ccccn1 (configuration not stated), the activity is reported as -10%.
Compound C#CCSc1nnc(-c2sc(-c3ccccc3)nc2C)n1C has an activity of 2.88%.
Work on Clc1ccc(CSc2nnc(-c3cccnc3)o2)cc1 yielded an activity of -2.62%.
CCOC(=O)c1ccc(N2C(=O)c3n[nH]c(C)c3C2c2ccc(OC)c(OC)c2)cc1 (configuration not stated) gave an activity of 0.626%.
Compound CC(=O)c1ccc(N2CCN(S(=O)(=O)c3c(C(=O)N4CCCC4)c(C)n(C)c3C)CC2)cc1 has an activity of 12.9%.
COc1cc(C(=O)Nc2cccnc2)cc(OC)c1OC gave an activity of -9.69%.
